PubChem BioAssay AID652272 – Drosophila RNAi Screening Center – 2013
Purpose: 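Genome-wide knock-down search for components of Hedgehog signalling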 (primary screen). Cell system: Drosophila clone 8 (Cl8) cells. Reagents: long dsRNA against Drosophila genes. Measurement: 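Plate reader light from a firefly reporter under a ptc promoter fragment that responds to Hedgehog, with Renilla light as transfection reference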. Scale: firefly Hh reporter signal: higher = more ptc reporter light; Renilla reference signal: higher = more Renilla control light. Active means: 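Called a hit if the two-replicate mean z-score lies below -2 or above +3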. Calls: active = hit: reporter lowered or raised; inactive = not a hit.
The screen tested about 21,000 reagents; below is an unselected part of those that have a named target and a result. Over the whole deposit, 503 (2.4%) were called active. 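Raw plate light values, not normalised; calls rest on replicate z-scores that were not deposited; hits include reporter decreases as well as increases.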 A plus sign joins genes that one reagent is predicted to hit. Reagent sequences are not shown. The record does not give: the amount of reagent, the time to read-out.

{"target gene":"Eogt (EGF-domain O-GlcNAc transferase)","PubChem SID":"SID104180519","firefly Hh reporter signal, replicate 1":1.44e5,"firefly Hh reporter signal, replicate 2":95856,"Renilla reference signal, replicate 1":5621,"Renilla reference signal, replicate 2":4416,"Call":"inactive"}
{"target gene":"vari (varicose)","PubChem SID":"SID104182994","firefly Hh reporter signal, replicate 1":72384,"firefly Hh reporter signal, replicate 2":59001,"Renilla reference signal, replicate 1":1863,"Renilla reference signal, replicate 2":4865,"Call":"inactive"}
{"target gene":"CG12182","PubChem SID":"SID104187934","firefly Hh reporter signal, replicate 1":80560,"firefly Hh reporter signal, replicate 2":77002,"Renilla reference signal, replicate 1":2969,"Renilla reference signal, replicate 2":2496,"Call":"inactive"}
{"target gene":"CG15036","PubChem SID":"SID104197760","firefly Hh reporter signal, replicate 1":74592,"firefly Hh reporter signal, replicate 2":1.71e5,"Renilla reference signal, replicate 1":2658,"Renilla reference signal, replicate 2":7387,"Call":"inactive"}
{"target gene":"Jheh1 (Juvenile hormone epoxide hydrolase 1)","PubChem SID":"SID104186321","firefly Hh reporter signal, replicate 1":96905,"firefly Hh reporter signal, replicate 2":66417,"Renilla reference signal, replicate 1":3890,"Renilla reference signal, replicate 2":2473,"Call":"inactive"}
{"target gene":"CG5498","PubChem SID":"SID104191400","firefly Hh reporter signal, replicate 1":1.04e5,"firefly Hh reporter signal, replicate 2":55824,"Renilla reference signal, replicate 1":4034,"Renilla reference signal, replicate 2":1991,"Call":"inactive"}
{"target gene":"cGlr2 (cGAS-like receptor 2)","PubChem SID":"SID104183809","firefly Hh reporter signal, replicate 1":65571,"firefly Hh reporter signal, replicate 2":1.21e5,"Renilla reference signal, replicate 1":2890,"Renilla reference signal, replicate 2":8196,"Call":"active"}
{"target gene":"CG10587","PubChem SID":"SID104191419","firefly Hh reporter signal, replicate 1":99288,"firefly Hh reporter signal, replicate 2":1.22e5,"Renilla reference signal, replicate 1":3805,"Renilla reference signal, replicate 2":3481,"Call":"inactive"}
{"target gene":"CG17493","PubChem SID":"SID104183590","firefly Hh reporter signal, replicate 1":76100,"firefly Hh reporter signal, replicate 2":45241,"Renilla reference signal, replicate 1":2649,"Renilla reference signal, replicate 2":4662,"Call":"inactive"}
{"target gene":"alpha4GT2 (alpha1,4-galactosyltransferase 2)","PubChem SID":"SID104193524","firefly Hh reporter signal, replicate 1":44784,"firefly Hh reporter signal, replicate 2":1.52e5,"Renilla reference signal, replicate 1":9812,"Renilla reference signal, replicate 2":2497,"Call":"inactive"}
{"target gene":"alpha4GT2 (alpha1,4-galactosyltransferase 2)","PubChem SID":"SID104195697","firefly Hh reporter signal, replicate 1":5.01e5,"firefly Hh reporter signal, replicate 2":1.29e5,"Renilla reference signal, replicate 1":26034,"Renilla reference signal, replicate 2":3416,"Call":"inactive"}
{"target gene":"AnxB11 (Annexin B11)","PubChem SID":"SID104199123","firefly Hh reporter signal, replicate 1":79308,"firefly Hh reporter signal, replicate 2":70464,"Renilla reference signal, replicate 1":1653,"Renilla reference signal, replicate 2":1293,"Call":"inactive"}
{"target gene":"TM9SF4 (Transmembrane 9 superfamily protein member 4)","PubChem SID":"SID104181680","firefly Hh reporter signal, replicate 1":92537,"firefly Hh reporter signal, replicate 2":94081,"Renilla reference signal, replicate 1":3740,"Renilla reference signal, replicate 2":3898,"Call":"inactive"}
{"target gene":"orb (oo18 RNA-binding protein)","PubChem SID":"SID104196813","firefly Hh reporter signal, replicate 1":43927,"firefly Hh reporter signal, replicate 2":25440,"Renilla reference signal, replicate 1":1848,"Renilla reference signal, replicate 2":1163,"Call":"inactive"}
{"target gene":"tin (tinman)","PubChem SID":"SID104196875","firefly Hh reporter signal, replicate 1":6.93e5,"firefly Hh reporter signal, replicate 2":2.25e5,"Renilla reference signal, replicate 1":32929,"Renilla reference signal, replicate 2":5797,"Call":"inactive"}
{"target gene":"CG11997","PubChem SID":"SID104194256","firefly Hh reporter signal, replicate 1":71842,"firefly Hh reporter signal, replicate 2":1.02e5,"Renilla reference signal, replicate 1":2691,"Renilla reference signal, replicate 2":2994,"Call":"inactive"}
{"target gene":"r2d2","PubChem SID":"SID104182806","firefly Hh reporter signal, replicate 1":1.21e5,"firefly Hh reporter signal, replicate 2":54661,"Renilla reference signal, replicate 1":3088,"Renilla reference signal, replicate 2":6068,"Call":"inactive"}
{"target gene":"Skp2 + CG1103","PubChem SID":"SID104191952","firefly Hh reporter signal, replicate 1":1.80e5,"firefly Hh reporter signal, replicate 2":1.36e5,"Renilla reference signal, replicate 1":8003,"Renilla reference signal, replicate 2":4890,"Call":"inactive"}
{"target gene":"CG15443","PubChem SID":"SID104180247","firefly Hh reporter signal, replicate 1":1.15e5,"firefly Hh reporter signal, replicate 2":52648,"Renilla reference signal, replicate 1":3436,"Renilla reference signal, replicate 2":4289,"Call":"inactive"}
{"target gene":"DNAlig1 (DNA ligase 1)","PubChem SID":"SID104184310","firefly Hh reporter signal, replicate 1":58177,"firefly Hh reporter signal, replicate 2":36408,"Renilla reference signal, replicate 1":3865,"Renilla reference signal, replicate 2":2138,"Call":"active"}
{"target gene":"TyrRS-m (Tyrosyl-tRNA synthetase, mitochondrial)","PubChem SID":"SID104184078","firefly Hh reporter signal, replicate 1":1.05e5,"firefly Hh reporter signal, replicate 2":78098,"Renilla reference signal, replicate 1":3781,"Renilla reference signal, replicate 2":2228,"Call":"inactive"}
{"target gene":"CG7309","PubChem SID":"SID104182837","firefly Hh reporter signal, replicate 1":1.51e5,"firefly Hh reporter signal, replicate 2":94032,"Renilla reference signal, replicate 1":3571,"Renilla reference signal, replicate 2":7526,"Call":"inactive"}
{"target gene":"CG12698","PubChem SID":"SID104199277","firefly Hh reporter signal, replicate 1":70361,"firefly Hh reporter signal, replicate 2":1.53e5,"Renilla reference signal, replicate 1":1932,"Renilla reference signal, replicate 2":6540,"Call":"inactive"}
{"target gene":"CG17104","PubChem SID":"SID104182365","firefly Hh reporter signal, replicate 1":78173,"firefly Hh reporter signal, replicate 2":61323,"Renilla reference signal, replicate 1":3301,"Renilla reference signal, replicate 2":2631,"Call":"inactive"}
{"target gene":"CG34367","PubChem SID":"SID104182030","firefly Hh reporter signal, replicate 1":1.22e5,"firefly Hh reporter signal, replicate 2":58772,"Renilla reference signal, replicate 1":3368,"Renilla reference signal, replicate 2":6316,"Call":"inactive"}
{"target gene":"CG34367","PubChem SID":"SID104182642","firefly Hh reporter signal, replicate 1":86797,"firefly Hh reporter signal, replicate 2":61417,"Renilla reference signal, replicate 1":2432,"Renilla reference signal, replicate 2":5349,"Call":"inactive"}
{"target gene":"CG8343","PubChem SID":"SID104184697","firefly Hh reporter signal, replicate 1":1.44e5,"firefly Hh reporter signal, replicate 2":62784,"Renilla reference signal, replicate 1":5840,"Renilla reference signal, replicate 2":3044,"Call":"inactive"}
